Some of the results follow.
Compound: CC1Cc2ccccc2N1C(=O)C1CCCN(C1)C(=O)CCl (mixture of isomers) [TRIM25 ligand 11 (diastereomer mixture)]
Experiment: probe-labelled cysteine peptide fold change vs DMSO (competition) (log2 fold change); higher = less target engagement (more negative = stronger competition)
Conditions: THP-1, incubation time: 4 h
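Further: competitive chemoproteomic profiling in live THP-1 cells with an iodoacetamide desthiobiotin (IA-DTB) probe, comparing probe-labelled peptide intensities in compound-treated cells against DMSO-treated controls.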

Amino acid sequences for entries named in this document (tags omitted). A change or cut given only in a name is not applied to a line headed by its entry.
UniProt P17987, whole entry, looked up: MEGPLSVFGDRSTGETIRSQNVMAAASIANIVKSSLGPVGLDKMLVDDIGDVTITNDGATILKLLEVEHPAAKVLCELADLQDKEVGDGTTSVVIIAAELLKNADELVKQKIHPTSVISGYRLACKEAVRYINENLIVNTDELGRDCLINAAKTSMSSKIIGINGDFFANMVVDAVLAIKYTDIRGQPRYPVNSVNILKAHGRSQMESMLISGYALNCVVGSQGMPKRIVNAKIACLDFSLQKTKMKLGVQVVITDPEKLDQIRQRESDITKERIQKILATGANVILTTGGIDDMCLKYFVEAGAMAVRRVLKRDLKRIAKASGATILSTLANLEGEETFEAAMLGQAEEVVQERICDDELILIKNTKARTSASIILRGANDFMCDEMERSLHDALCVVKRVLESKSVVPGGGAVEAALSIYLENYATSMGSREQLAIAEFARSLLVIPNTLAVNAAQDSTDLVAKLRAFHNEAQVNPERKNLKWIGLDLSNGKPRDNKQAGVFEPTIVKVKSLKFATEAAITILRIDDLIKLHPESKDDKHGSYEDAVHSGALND
UniProt Q96CG3: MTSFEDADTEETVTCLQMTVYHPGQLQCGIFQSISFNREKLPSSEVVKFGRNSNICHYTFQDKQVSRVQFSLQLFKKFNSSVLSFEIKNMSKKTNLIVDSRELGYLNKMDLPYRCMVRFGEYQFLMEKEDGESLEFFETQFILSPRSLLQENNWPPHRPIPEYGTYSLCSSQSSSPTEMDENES
UniProt Q3ZCQ8: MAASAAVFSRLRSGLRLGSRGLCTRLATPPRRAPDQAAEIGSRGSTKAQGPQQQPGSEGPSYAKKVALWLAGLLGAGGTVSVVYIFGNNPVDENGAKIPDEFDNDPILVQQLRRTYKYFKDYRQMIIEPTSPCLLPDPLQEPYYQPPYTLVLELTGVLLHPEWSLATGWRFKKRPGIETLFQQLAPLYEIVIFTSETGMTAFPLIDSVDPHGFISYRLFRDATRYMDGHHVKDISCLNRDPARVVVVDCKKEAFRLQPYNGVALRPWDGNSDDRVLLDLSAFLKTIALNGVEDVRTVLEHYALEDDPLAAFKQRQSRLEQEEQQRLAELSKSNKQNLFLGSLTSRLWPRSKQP
UniProt Q8NHU6: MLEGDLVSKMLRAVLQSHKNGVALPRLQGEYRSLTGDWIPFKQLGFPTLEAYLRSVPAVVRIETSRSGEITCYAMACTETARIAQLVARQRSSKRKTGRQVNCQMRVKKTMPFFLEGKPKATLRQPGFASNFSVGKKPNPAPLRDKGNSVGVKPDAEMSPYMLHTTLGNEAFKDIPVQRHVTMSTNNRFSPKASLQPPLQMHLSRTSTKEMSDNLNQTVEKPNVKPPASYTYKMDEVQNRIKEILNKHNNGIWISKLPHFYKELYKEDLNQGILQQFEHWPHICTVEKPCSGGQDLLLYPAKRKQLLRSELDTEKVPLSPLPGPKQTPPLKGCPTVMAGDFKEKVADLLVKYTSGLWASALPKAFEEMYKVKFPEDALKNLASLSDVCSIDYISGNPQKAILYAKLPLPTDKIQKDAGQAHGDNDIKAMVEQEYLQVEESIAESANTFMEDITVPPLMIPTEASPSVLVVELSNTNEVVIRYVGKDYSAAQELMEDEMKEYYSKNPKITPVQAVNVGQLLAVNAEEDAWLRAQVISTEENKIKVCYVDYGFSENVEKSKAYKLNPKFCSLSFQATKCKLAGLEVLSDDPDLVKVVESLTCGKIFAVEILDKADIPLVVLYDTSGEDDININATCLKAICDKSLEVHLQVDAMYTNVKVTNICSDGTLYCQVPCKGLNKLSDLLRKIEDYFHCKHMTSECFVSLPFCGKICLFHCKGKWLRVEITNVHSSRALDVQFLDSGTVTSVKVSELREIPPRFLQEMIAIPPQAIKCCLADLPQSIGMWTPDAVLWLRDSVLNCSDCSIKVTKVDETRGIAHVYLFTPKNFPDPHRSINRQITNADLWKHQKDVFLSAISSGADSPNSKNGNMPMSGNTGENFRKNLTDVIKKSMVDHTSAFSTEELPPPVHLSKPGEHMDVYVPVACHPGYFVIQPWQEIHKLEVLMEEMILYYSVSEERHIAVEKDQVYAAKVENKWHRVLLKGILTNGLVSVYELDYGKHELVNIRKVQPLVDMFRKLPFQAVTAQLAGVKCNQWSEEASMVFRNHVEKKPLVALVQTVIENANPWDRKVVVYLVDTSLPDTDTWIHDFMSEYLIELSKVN
UniProt Q9NWX6: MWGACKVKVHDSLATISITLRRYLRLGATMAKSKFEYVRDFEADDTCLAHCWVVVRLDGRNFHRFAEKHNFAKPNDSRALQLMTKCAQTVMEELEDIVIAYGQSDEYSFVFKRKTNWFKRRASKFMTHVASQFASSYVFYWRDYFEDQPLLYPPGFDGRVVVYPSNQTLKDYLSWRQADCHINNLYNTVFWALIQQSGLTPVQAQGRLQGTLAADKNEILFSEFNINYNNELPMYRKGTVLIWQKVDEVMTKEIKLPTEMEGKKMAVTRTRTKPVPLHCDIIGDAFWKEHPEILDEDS
UniProt O15040: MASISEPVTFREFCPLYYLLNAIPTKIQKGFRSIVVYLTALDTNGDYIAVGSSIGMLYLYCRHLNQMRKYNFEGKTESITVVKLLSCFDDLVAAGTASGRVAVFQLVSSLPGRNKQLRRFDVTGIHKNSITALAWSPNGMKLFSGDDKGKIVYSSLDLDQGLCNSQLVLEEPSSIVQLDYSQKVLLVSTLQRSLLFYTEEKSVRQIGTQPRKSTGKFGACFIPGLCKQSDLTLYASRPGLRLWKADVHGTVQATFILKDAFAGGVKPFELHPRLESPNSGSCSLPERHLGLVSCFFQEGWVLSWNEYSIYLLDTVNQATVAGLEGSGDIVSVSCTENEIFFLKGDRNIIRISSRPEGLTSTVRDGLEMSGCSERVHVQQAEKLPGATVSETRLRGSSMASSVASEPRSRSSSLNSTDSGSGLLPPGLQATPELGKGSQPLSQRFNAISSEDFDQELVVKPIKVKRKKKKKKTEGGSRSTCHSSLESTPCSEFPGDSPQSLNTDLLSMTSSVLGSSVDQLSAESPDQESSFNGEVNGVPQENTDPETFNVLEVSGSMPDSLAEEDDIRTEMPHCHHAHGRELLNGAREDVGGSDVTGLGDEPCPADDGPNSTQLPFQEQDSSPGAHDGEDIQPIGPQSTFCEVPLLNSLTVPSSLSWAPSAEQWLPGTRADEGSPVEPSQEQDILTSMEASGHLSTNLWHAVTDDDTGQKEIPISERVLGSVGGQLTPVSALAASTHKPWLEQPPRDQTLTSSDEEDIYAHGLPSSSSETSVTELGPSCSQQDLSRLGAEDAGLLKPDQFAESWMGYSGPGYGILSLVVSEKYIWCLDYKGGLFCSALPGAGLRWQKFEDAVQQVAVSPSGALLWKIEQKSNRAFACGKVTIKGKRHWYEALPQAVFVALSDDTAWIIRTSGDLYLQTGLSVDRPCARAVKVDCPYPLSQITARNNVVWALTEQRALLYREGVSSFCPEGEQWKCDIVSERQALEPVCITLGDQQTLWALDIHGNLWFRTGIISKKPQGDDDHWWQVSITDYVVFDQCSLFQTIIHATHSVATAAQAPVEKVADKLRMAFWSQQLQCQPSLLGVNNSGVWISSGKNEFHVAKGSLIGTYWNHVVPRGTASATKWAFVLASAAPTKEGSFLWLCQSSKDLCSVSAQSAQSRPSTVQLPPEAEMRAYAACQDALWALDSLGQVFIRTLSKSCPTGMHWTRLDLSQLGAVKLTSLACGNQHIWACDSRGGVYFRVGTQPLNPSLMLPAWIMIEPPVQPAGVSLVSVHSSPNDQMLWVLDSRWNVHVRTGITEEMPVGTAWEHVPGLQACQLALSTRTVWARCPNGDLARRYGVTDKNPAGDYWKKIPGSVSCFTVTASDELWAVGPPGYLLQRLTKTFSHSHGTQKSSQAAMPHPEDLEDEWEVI
UniProt Q8WUY1: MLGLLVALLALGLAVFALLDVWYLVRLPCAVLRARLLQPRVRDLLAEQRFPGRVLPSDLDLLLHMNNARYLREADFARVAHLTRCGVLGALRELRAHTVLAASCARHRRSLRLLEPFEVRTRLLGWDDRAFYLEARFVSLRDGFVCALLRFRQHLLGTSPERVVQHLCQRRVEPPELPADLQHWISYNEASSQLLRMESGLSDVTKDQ
UniProt Q6YHU6: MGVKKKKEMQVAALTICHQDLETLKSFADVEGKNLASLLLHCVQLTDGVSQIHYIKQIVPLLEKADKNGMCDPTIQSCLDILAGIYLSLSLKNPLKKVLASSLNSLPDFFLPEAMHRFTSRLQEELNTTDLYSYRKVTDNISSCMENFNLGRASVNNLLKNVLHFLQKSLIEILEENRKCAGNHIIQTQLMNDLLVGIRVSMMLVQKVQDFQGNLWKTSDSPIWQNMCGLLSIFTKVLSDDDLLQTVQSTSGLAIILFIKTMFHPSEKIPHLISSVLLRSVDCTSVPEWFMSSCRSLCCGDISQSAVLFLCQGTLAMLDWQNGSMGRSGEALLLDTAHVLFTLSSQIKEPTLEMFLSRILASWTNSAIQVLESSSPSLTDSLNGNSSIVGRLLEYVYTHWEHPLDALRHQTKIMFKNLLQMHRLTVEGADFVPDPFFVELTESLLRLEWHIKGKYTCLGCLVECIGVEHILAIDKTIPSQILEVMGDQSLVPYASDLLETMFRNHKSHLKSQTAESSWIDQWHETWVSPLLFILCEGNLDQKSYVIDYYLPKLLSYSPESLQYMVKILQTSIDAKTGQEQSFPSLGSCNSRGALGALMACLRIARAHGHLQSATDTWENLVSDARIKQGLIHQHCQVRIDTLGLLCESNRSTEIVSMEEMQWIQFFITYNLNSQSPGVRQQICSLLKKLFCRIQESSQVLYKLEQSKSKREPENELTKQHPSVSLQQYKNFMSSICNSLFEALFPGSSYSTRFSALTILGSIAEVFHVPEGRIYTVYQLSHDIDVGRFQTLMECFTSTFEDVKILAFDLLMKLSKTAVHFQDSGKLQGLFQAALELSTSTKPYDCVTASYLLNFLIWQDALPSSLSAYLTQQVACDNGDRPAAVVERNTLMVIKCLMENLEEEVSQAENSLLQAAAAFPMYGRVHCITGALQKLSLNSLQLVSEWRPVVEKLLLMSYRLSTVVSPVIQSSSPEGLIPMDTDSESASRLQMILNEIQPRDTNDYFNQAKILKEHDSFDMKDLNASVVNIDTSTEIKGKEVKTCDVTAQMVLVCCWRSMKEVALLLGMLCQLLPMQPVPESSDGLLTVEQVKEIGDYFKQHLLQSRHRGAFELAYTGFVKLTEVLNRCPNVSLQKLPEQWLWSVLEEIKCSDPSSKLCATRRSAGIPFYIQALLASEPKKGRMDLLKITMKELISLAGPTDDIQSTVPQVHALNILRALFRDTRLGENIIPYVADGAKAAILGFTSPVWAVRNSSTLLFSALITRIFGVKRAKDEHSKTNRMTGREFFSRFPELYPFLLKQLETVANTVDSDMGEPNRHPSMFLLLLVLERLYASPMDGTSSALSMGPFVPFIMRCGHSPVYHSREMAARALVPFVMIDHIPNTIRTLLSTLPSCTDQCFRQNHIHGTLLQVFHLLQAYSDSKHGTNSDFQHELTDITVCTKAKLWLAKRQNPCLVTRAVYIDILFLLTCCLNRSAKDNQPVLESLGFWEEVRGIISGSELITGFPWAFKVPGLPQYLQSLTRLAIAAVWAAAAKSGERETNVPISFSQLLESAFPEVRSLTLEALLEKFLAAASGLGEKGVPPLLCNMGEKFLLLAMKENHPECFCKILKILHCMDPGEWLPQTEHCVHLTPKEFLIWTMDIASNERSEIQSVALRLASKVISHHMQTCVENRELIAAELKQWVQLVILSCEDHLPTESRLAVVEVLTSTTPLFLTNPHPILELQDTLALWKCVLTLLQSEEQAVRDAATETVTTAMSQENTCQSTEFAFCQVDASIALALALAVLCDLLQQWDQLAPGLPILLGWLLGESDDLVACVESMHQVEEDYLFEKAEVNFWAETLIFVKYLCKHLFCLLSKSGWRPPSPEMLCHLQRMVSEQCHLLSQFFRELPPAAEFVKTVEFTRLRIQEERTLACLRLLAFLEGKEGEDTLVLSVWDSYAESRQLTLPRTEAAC
UniProt Q9BV44: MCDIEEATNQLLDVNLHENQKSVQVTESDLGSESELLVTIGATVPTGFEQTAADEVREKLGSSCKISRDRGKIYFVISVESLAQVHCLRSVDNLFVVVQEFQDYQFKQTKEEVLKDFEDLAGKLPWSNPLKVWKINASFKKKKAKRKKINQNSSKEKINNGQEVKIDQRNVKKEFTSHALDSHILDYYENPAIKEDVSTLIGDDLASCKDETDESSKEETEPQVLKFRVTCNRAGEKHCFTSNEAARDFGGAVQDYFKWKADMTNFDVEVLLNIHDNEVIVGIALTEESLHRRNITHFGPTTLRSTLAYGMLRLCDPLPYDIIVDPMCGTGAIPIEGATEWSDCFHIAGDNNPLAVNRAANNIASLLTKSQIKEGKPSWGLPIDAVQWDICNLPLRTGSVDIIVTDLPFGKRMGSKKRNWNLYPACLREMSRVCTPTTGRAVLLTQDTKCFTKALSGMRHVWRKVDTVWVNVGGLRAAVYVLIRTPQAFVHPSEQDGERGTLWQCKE

| Target | probe-labelled cysteine peptide fold change (10 µM) | probe-labelled cysteine peptide fold change (50 µM) |
| --- | --- | --- |
| TCP1_P17987_385_GANDFMCDEMER (UniProt P17987) | -0.0369 | -0.0838 |
| TKFC_Q3LXA3_155_RGLCGTVLIHK (UniProt Q3LXA3) | -0.0729 | 0.00548 |
| TIFA_Q96CG3_56_NSNICHYTFQDK (UniProt Q96CG3) | 0.0984 | 0.118 |
| TIMP3_P35625_184_HYACIR (UniProt P35625) | 0.00106 | 0.0197 |
| TIMM50_Q3ZCQ8_236_DISCLNRDPAR (UniProt Q3ZCQ8) | -0.111 | -0.129 |
| TDRD7_Q8NHU6_333_GCPTVMAGDFK (UniProt Q8NHU6) | -0.0317 | -0.308 |
| TGM2_P21980_371_SEGTYCCGPVPVR (UniProt P21980) | -0.0787 | -0.00707 |
| TGFB1I1_O43294_393_ECFAPFSGGSFFEHEGRPLCENHFHAR (UniProt O43294) | -0.0101 | 0.114 |
| TIPRL_O75663_14_DFCFGPWK (UniProt O75663) | -0.0112 | -0.0101 |
| TKT_P29401_362_EHPDRFIECYIAEQNMVSIAVGCATR (UniProt P29401) | 0.0018 | 0.0657 |
| TDRD7_Q8NHU6_1029_CNQWSEEASMVFR (UniProt Q8NHU6) | 0.0828 | -0.137 |
| TES_Q9UGI8_361_NHAVVCQGCHNAIDPEVQR (UniProt Q9UGI8) | 0.0247 | -0.00899 |
| THG1L_Q9NWX6_51_DFEADDTCLAHCWVVVR (UniProt Q9NWX6) | 0.17 | 0.0848 |
| TKT_P29401_362+376_EHPDRFIECYIAEQNMVSIAVGCATR (UniProt P29401) | 0.0379 | 0.0881 |
| TDRD7_Q8NHU6_600_VVESLTCGK (UniProt Q8NHU6) | 0.0226 | 0.127 |
| TDP1_Q9NUW8_48_YTCSEAQK (UniProt Q9NUW8) | -0.0326 | -0.332 |
| THOC6_Q86W42_214_EVQTIEVYKHEECSR (UniProt Q86W42) | -0.0305 | 0.0461 |
| TKT_P29401_42_ISSIQATTAAGSGHPTSCCSAAEIMAVLFFHTMR (UniProt P29401) | -0.12 | -0.283 |

| Target | probe-labelled cysteine peptide fold change (10 µM) | probe-labelled cysteine peptide fold change (50 µM) |
| --- | --- | --- |
| TEPSIN_Q96N21_273_ACGLLNCEAVLQLLTCHLR (UniProt Q96N21) | -0.114 | 0.299 |
| TIMM50_Q3ZCQ8_249_VVVVDCK (UniProt Q3ZCQ8) | 0.547 | 0.0512 |
| TECPR2_O15040_282_LESPNSGSCSLPER (UniProt O15040) | -0.0364 | -0.0561 |
| THOP1_P52888_175_LSLLCIDFNK (UniProt P52888) | 0.0227 | 0.00268 |
| TFCP2_Q12800_453_IAQLFSISPCQISQIYK (UniProt Q12800) | 0.205 | 0.0577 |
| THEM6_Q8WUY1_104_AHTVLAASCAR (UniProt Q8WUY1) | 0.0289 | 0.0465 |
| THG1L_Q9NWX6_47_DFEADDTCLAHCWVVVR (UniProt Q9NWX6) | -0.0507 | 0.156 |
| TEX30_Q5JUR7_166_LKEPVLFVSGSADEMCEK (UniProt Q5JUR7) | -0.0477 | -0.18 |
| TCF20_Q9UGU0_1795_SEDCGGGPR (UniProt Q9UGU0) | -0.0601 | -0.00254 |
| THOC5_Q13769_613_ELCGPWPSHQLLTNQLQR (UniProt Q13769) | 0.00273 | 0.15 |
| THADA_Q6YHU6_1605_ENHPECFCK (UniProt Q6YHU6) | 0.213 | 0.216 |
| THUMPD3_Q9BV44_434_VCTPTTGR (UniProt Q9BV44) | -0.184 | -0.0742 |
| TLE3_Q04726_26_FTVAESCDR (UniProt Q04726) | 0.0783 | 0.196 |
| TCP1_P17987_76_VLCELADLQDK (UniProt P17987) | 0.0382 | -0.00996 |
| THOC1_Q96FV9_49_KCTLDQAFR (UniProt Q96FV9) | -0.153 | -0.229 |
| TCP1_P17987_357_ICDDELILIK (UniProt P17987) | 0.0589 | -0.0138 |
| THADA_Q6YHU6_926_VHCITGALQK (UniProt Q6YHU6) | -0.0248 | -0.0781 |

Whole records as entered above:
TCP1_P17987_357_ICDDELILIK (UniProt P17987) reads probe-labelled cysteine peptide fold change (10 µM): 0.0589; probe-labelled cysteine peptide fold change (50 µM): -0.0138
TECPR2_O15040_282_LESPNSGSCSLPER (UniProt O15040) reads probe-labelled cysteine peptide fold change (10 µM): -0.0364; probe-labelled cysteine peptide fold change (50 µM): -0.0561

Reference: the supplement of paper PMC12067093, “Discovery and optimisation of a covalent ligand for TRIM25 and its application to targeted protein ubiquitination” (Chemical Science, 2025)
